Measured data: PubChem BioAssay AID1508597 (Cure First, 2020)
This is a random part of the about 2,100 reagents, in one setting of the screen. 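Calls flag viability under 80% in either arm, not effects specific to rucaparib; the reference for percent is not stated.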 A reagent listed more than once was tested more than once; the source does not tell the runs apart. Reagent sequences are not shown. The record does not give: the 100% reference.

- Assay: 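Genes whose silencing sensitises or protects ovarian cancer cells against rucaparib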 (primary screen)
- System: human ovarian carcinoma lines grown from tumours: OCI-P5x (papillary serous) and OCI-C5x (clear cell)
- Reagents: siRNA pool against human genes, 1.25 pmol siRNA per well
- Duration: 72 h or 96 h, depending on the cell culture
- Treatment: rucaparib 20 µM (about IC30) or vehicle, present until read-out
- Rucaparib or vehicle: Rucaparib
- Cell line: OCI-P5x (serous)
- Read-out: 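Luminescent ATP-based viability assay read 72 or 96 h after transfection, depending on culture, given as normalised percent viability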
- Reading the numbers: viability, normalised: higher = more viable cells remaining
- Active means: 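a well counts as a hit if its normalised viability is under 80 percent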
- Calls: active = viability under 80%; inactive = viability 80% or more

no.	Target gene	PubChem SID	technical replicate	viability, normalised (%)	call
1	SRPK1 (SRSF protein kinase 1)	SID405527798	1	111	inactive
2	SRPK1 (SRSF protein kinase 1)	SID405527798	2	90.2	inactive
3	SRPK1 (SRSF protein kinase 1)	SID405527798	3	104	inactive
4	PLK2 (polo like kinase 2)	SID405527691	1	81.7	inactive
5	PLK2 (polo like kinase 2)	SID405527691	2	95.3	inactive
6	PLK2 (polo like kinase 2)	SID405527691	3	78.5	active
7	CECR2 (CECR2 histone acetyl-lysine reader)	SID405526480	1	89.4	inactive
8	CECR2 (CECR2 histone acetyl-lysine reader)	SID405526480	1	68.7	active
9	CECR2 (CECR2 histone acetyl-lysine reader)	SID405526480	2	67.7	active
10	CECR2 (CECR2 histone acetyl-lysine reader)	SID405526480	2	87.3	inactive
11	CECR2 (CECR2 histone acetyl-lysine reader)	SID405526480	3	68.1	active
12	CECR2 (CECR2 histone acetyl-lysine reader)	SID405526480	3	85.8	inactive
13	MED27 (mediator complex subunit 27)	SID405527002	1	43.4	active
14	MED27 (mediator complex subunit 27)	SID405527002	2	62	active
15	MED27 (mediator complex subunit 27)	SID405527002	3	50.9	active

Continued (4 carried over from the part before).
no.	Target gene	PubChem SID	technical replicate	viability, normalised (%)	call
12	CECR2 (CECR2 histone acetyl-lysine reader)	SID405526480	3	85.8	inactive
13	MED27 (mediator complex subunit 27)	SID405527002	1	43.4	active
14	MED27 (mediator complex subunit 27)	SID405527002	2	62	active
15	MED27 (mediator complex subunit 27)	SID405527002	3	50.9	active
16	MTA3 (metastasis associated 1 family member 3)	SID405527036	1	47.2	active
17	MTA3 (metastasis associated 1 family member 3)	SID405527036	2	60.3	active
18	MTA3 (metastasis associated 1 family member 3)	SID405527036	3	57.5	active
19	PRDM9 (PR/SET domain 9)	SID405527193	1	56	active
20	PRDM9 (PR/SET domain 9)	SID405527193	2	54.6	active
21	PRDM9 (PR/SET domain 9)	SID405527193	3	51.6	active
22	PAX5 (paired box 5)	SID405527117	1	41.8	active
23	PAX5 (paired box 5)	SID405527117	2	37.8	active
24	PAX5 (paired box 5)	SID405527117	3	46.3	active
25	AKAP13 (A-kinase anchoring protein 13)	SID405527808	1	108	inactive
26	AKAP13 (A-kinase anchoring protein 13)	SID405527808	2	104	inactive
27	AKAP13 (A-kinase anchoring protein 13)	SID405527808	3	57.9	active
28	MELK (maternal embryonic leucine zipper kinase)	SID405528513	1	63	active
29	MELK (maternal embryonic leucine zipper kinase)	SID405528513	2	61	active
30	MELK (maternal embryonic leucine zipper kinase)	SID405528513	3	58.2	active
31	HDAC7 (histone deacetylase 7)	SID405526845	1	74.6	active
32	HDAC7 (histone deacetylase 7)	SID405526845	2	79.3	active
33	HDAC7 (histone deacetylase 7)	SID405526845	3	63.3	active
34	NCOR2 (nuclear receptor corepressor 2)	SID405527066	1	42.3	active
35	NCOR2 (nuclear receptor corepressor 2)	SID405527066	2	44.5	active
36	NCOR2 (nuclear receptor corepressor 2)	SID405527066	3	32.9	active
37	CSNK1G1 (casein kinase 1 gamma 1)	SID405527550	1	54.9	active
38	CSNK1G1 (casein kinase 1 gamma 1)	SID405527550	2	50.2	active
39	CSNK1G1 (casein kinase 1 gamma 1)	SID405527550	3	56.3	active
